US8518959B2, “Quinoxaline derivatives as antitumor agents” (Prolexys Pharmaceuticals, Inc., priority 2005, dated 2013)
The amount applied is not stated for every result.

tested on: engineered cell lines; test: Selectivity ratios for each subsequent pair of engineered cell lines; assay type: cell-based, human; details: from selectivity ratios of subsequent pairs of cell lines

SMILES | Genetic Basis of Selectivity
COc1cccc2c1C(=O)c1c(O)c3c(c(O)c1C2=O)C[C@@](O)(C(C)=O)C[C@@H]3O[C@H]1C[C@H](N)[C@H](O)[C@H](C)O1 [Daunorubicin] | TERT/RB
O=C1c2c(O)ccc(O)c2C(=O)c2c(NCCNCCO)ccc(NCCNCCO)c21 [Mitoxantrone] | TERT/RB
COc1cccc2c1C(=O)c1c(O)c3c(c(O)c1C2=O)C[C@@](O)(C(=O)CO)C[C@@H]3O[C@H]1C[C@H](N)[C@H](O)[C@H](C)O1 [Doxorubicin] | TERT/RB
